These are yes or no findings as the source states them, for the method shown. In cells and extracts the contact can be indirect. These calls come from enrichment with a bait or labelling near it, and not all partners need be listed.
T1: Interferon-induced protein with tetratricopeptide repeats 3 (human (endogenous in L3.6pl and TBO368)) (UniProt O14879)
T1 sequence: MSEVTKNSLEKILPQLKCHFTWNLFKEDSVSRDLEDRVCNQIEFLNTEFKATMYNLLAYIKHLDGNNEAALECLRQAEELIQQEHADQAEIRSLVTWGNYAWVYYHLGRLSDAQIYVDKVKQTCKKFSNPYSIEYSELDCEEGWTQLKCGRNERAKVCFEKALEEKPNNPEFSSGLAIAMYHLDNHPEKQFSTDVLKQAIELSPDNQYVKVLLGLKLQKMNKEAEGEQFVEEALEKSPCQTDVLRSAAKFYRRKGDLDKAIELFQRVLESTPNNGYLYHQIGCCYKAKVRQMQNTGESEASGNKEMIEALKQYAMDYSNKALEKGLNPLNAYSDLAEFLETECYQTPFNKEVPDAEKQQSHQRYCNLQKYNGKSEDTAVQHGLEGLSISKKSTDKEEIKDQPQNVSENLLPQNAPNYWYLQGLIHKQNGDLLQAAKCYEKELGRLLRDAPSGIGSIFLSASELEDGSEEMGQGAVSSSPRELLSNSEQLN

Chains of the proteins cited; added tags and fusions are not shown.
UniProt P22061: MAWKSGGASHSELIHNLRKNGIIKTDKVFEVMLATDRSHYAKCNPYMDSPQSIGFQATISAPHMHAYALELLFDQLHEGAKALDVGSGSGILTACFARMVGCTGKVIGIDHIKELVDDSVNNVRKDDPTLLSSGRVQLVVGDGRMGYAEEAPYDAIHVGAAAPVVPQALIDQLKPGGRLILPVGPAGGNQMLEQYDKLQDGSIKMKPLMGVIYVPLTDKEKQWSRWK


Biological target: T1, Interferon-induced protein with tetratricopeptide repeats 3 (human (endogenous in L3.6pl and TBO368))
Test: affinity purification with mass spectrometry; immunoprecipitation with anti-IFIT3 antibody (normal IgG control) from lysates of L3.6pl and TBO368 cells treated with gemcitabine; IP lysis buffer 25 mM Tris pH 7.4, 150 mM NaCl, 1 mM EDTA, 0.5% NP-40, 5% glycerol; protein A-Dynabeads; nano LC-MS

| binding | Molecule |
| --- | --- |
| binds | PCMT1 (from UniProt P22061 1-227) |
| binds | TM9SF3 (protein, UniProt Q9HD45 29-589) DEHEHTYQDKEEVVLWMNTVGPYHNRQETYKYFSLPFCVGSKKSISHYHETLGEALQGVELEFSGLDIKFKDDVMPATYCEIDLDKEKRDAFVYAIKNHYWYQMYIDDLPIWGIVGEADENGEDYYLWTYKKLEIGFNGNRIVDVNLTSEGKVKLVPNTKIQMSYSVKWKKSDVKFEDRFDKYLDPSFFQHRIHWFSIFNSFMMVIFLVGLVSMILMRTLRKDYARYSKEEEMDDMDRDLGDEYGWKQVHGDVFRPSSHPLIFSSLIGSGCQIFAVSLIVIIVAMIEDLYTERGSMLSTAIFVYAATSPVNGYFGGSLYARQGGRRWIKQMFIGAFLIPAMVCGTAFFINFIAIYYHASRAIPFGTMVAVCCICFFVILPLNLVGTILGRNLSGQPNFPCRVNAVPRPIPEKKWFMEPAVIVCLGGILPFGSIFIEMYFIFTSFWAYKIYYVYGFMMLVLVILCIVTVCVTIVCTYFLLNAEDYRWQWTSFLSAASTAIYVYMYSFYYYFFKTKMYGLFQTSFYFGYMAVFSTALGIMCGAIGYMGTSAFVRKIYTNVKID |

From publication PMC7330856
